# In article PMC6616073:
# Sequences of proteins named here, by UniProt entry; tags and fusion partners are left off. Residues count along the entry.
# UniProt P36544, residues 23-502: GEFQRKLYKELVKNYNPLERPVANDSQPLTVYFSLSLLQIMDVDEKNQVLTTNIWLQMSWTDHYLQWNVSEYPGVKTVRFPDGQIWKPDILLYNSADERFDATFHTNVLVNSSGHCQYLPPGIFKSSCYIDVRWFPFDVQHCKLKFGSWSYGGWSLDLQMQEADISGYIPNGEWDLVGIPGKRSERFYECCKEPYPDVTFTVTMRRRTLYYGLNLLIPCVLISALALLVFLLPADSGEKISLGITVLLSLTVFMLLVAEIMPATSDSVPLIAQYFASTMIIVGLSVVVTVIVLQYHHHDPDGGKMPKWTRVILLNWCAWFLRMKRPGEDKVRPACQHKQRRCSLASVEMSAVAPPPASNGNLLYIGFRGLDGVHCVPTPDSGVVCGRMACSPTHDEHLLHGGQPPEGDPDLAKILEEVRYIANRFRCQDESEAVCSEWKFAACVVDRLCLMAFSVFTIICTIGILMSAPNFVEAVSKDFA
# UniProt P60615, residues 22-95: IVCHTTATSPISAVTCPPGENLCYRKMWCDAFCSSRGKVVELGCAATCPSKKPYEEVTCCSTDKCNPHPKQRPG
# Results are given in words; binding and its absence hold for the method and conditions named. Some results given as binding are weak or reduced against the parent protein; the word gives no strength.
# Molecular target: human α7 nicotinic acetylcholine receptor stably expressed in the rat pituitary tumor-derived cell line GH4C1 (human) (UniProt P36544)
# Experiment: radioligand binding; only the binder purified
substance,measurement,value
radioiodinated α-bungarotoxin (from UniProt P60615 22-95) (ligand),binding,binds
